Results are given in words; binding and its absence hold for the method and conditions named. In cells and extracts the contact can be indirect. Some results given as binding are weak or reduced against the parent protein; the word gives no strength. Blank lines part the entries; values can stand above or below the substance they belong to.
Tests used:
[1] = target: GST-IP3R domain 3 fragment (mouse) (UniProt P11881); test: GST pull-down from Bcl-2(+) WEHI7.2 cell extract, Bcl-2 immunoblot
[2] = target: GST-IP3R domain 3 fragment (mouse) (UniProt P11881); test: GST pull-down from Jurkat cell extract, Bcl-2 immunoblot
[3] = target: GST-IP3R subdomain 3a1 (aa 1347-1426) (mouse) (UniProt P11881); test: GST pull-down with smaller fragments of domain 3
[4] = target: GST-IP3R domain 3 fragment (mouse) (UniProt P11881); test: GST pull-down under three buffer and wash conditions
[5] = target: GST-IP3R domain 3 fragment (mouse) (UniProt P11881); test: GST pull-down with purified protein, three separate experiments

Amino acid sequences for entries named in this document (tags omitted). Residues count along the entry.
GST-IP3R domain 3 fragment (P11881, residues 922-1581): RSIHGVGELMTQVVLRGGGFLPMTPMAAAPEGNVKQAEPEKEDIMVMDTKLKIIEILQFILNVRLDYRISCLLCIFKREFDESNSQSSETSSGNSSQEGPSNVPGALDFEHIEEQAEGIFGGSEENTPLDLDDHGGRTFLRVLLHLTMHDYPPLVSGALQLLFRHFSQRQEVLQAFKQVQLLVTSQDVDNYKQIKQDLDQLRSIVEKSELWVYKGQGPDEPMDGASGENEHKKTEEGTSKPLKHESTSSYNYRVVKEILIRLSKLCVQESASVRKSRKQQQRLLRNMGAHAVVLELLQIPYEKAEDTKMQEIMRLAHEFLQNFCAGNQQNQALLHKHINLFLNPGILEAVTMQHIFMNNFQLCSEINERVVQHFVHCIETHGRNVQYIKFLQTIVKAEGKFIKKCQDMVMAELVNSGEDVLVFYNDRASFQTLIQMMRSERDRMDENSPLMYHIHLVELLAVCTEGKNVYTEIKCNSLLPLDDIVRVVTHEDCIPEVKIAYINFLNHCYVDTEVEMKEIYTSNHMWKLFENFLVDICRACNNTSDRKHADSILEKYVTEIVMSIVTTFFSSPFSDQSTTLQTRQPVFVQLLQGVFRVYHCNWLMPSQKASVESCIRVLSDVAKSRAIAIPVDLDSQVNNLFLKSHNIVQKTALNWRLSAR
GST-IP3R subdomain 3a1 (aa 1347-1426) (P11881, residues 1347-1426): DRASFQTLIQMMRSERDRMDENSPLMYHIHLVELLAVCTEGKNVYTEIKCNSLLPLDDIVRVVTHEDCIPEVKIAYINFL
UniProt P10415: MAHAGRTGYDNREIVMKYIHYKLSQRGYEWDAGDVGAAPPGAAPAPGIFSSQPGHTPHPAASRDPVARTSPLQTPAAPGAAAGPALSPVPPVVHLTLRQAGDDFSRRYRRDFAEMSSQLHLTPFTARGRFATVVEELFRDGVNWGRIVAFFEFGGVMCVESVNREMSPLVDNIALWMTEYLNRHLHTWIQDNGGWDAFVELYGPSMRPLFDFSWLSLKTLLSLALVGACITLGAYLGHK

binding [1]: binds
Substance: Bcl-2 exogenously expressed in WEHI7.2 cells (from UniProt P10415 1-239)

binding [2]: binds
Substance: endogenous Bcl-2 in Jurkat cells (from UniProt P10415 1-239)

binding [3]: binds
binding [4]: binds
Substance: Bcl-2 (source not stated in the buffer comparison and subdomain pull-downs) (from UniProt P10415 1-239)

binding [5]: binds
Substance: purified His-tagged full-length Bcl-2 (from UniProt P10415 1-239)

From patent US20090048168A1 (CASE WESTERN RESERVE UNIVERSITY, published 2009)
